PubChem BioAssay AID1259308, NCATS – 2017
Assay: 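Genes whose loss raises luciferase production in HEK293 cells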 (primary screen). Cells: human HEK293 embryonic kidney cells stably expressing firefly luciferase (HEK-CMV-Luc2-Hygro). Reagent: single siRNA against human genes, 0.8 pmol siRNA per well. Duration: 72 h. Measured: 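Reporter luminescence and viable-cell signal on separate replicate plates, given as percent of non-targeting control and median/MAD z-scores, plus per-cell luciferase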. Scale: total luciferase, z-score and total luciferase, % of control: higher = more reporter protein produced. Rule for the call: 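Active when the median/MAD z-score for overall luciferase is greater than 3; a gene was taken forward for validation with new siRNAs if at least two of its three siRNAs passed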. Meaning of the calls: active = raised luciferase; inactive = no rise.
The whole screen tested about 59,000 reagents; below is a random part of them. About 1,510 of them (2.6%) count as active. 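Calls use total luciferase alone and ignore viability, so some active siRNAs may act by altering cell number.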 The numbers tell different reagents against one gene apart. Further read-outs or replicates are left out here. No sequences are given here.

gene | reagent | total luciferase, z-score | total luciferase, % of control | outcome
GCAT | 1 | -0.919 | 63.6 | inactive
GCAT | 2 | -0.335 | 75.2 | inactive
GCAT | 3 | -0.632 | 69.3 | inactive
SNX29P1 | 1 | 0.625 | 94.3 | inactive
SNX29P1 | 2 | 0.471 | 91.3 | inactive
SNX29P1 | 3 | -1.19 | 58.2 | inactive
ARCN1 | 1 | 1.76 | 117 | inactive
ARCN1 | 2 | 2.99 | 141 | inactive
ARCN1 | 3 | 2.34 | 128 | inactive
CELF3 | 1 | -2.97 | 22.8 | inactive
CELF3 | 2 | 0.157 | 85 | inactive
CELF3 | 3 | 0.17 | 85.3 | inactive
SYBU | 1 | -0.89 | 64.2 | inactive
SYBU | 2 | -0.0671 | 80.6 | inactive
SYBU | 3 | -0.0621 | 80.7 | inactive
TSPAN2 | 1 | 0.272 | 87.3 | inactive
TSPAN2 | 2 | -0.304 | 75.8 | inactive
TSPAN2 | 3 | -0.808 | 65.8 | inactive
RUVBL1 | 1 | 0.329 | 88.4 | inactive
RUVBL1 | 2 | 0.877 | 99.3 | inactive
RUVBL1 | 3 | -0.05 | 80.9 | inactive
DHRS7C | 1 | 0.406 | 90 | inactive
DHRS7C | 2 | 0.156 | 85 | inactive
DHRS7C | 3 | -1.41 | 53.9 | inactive
C1QTNF4 | 1 | -1.83 | 45.6 | inactive
C1QTNF4 | 2 | -0.142 | 79.1 | inactive
C1QTNF4 | 3 | 4.51 | 172 | active
NCKAP5L | 1 | -0.304 | 75.8 | inactive
NCKAP5L | 2 | 0.511 | 92.1 | inactive
NCKAP5L | 3 | -2.04 | 41.4 | inactive
GPATCH8 | 1 | -0.136 | 79.2 | inactive
GPATCH8 | 2 | 1.27 | 107 | inactive
GPATCH8 | 3 | 2.12 | 124 | inactive

Next part (8 carried over from the part before).
gene | reagent | total luciferase, z-score | total luciferase, % of control | outcome
C1QTNF4 | 2 | -0.142 | 79.1 | inactive
C1QTNF4 | 3 | 4.51 | 172 | active
NCKAP5L | 1 | -0.304 | 75.8 | inactive
NCKAP5L | 2 | 0.511 | 92.1 | inactive
NCKAP5L | 3 | -2.04 | 41.4 | inactive
GPATCH8 | 1 | -0.136 | 79.2 | inactive
GPATCH8 | 2 | 1.27 | 107 | inactive
GPATCH8 | 3 | 2.12 | 124 | inactive
CENPBD1P | 1 | 2.26 | 127 | inactive
CENPBD1P | 2 | 3.36 | 149 | active
CENPBD1P | 3 | -0.995 | 62.1 | inactive
REEP6 | 1 | -1.84 | 45.3 | inactive
REEP6 | 2 | -1.16 | 58.7 | inactive
REEP6 | 3 | 0.0362 | 82.6 | inactive
ACOT11 | 1 | -2.48 | 32.5 | inactive
ACOT11 | 2 | -0.0885 | 80.1 | inactive
ACOT11 | 3 | 2.69 | 135 | inactive
BAZ1B | 1 | -0.682 | 68.3 | inactive
BAZ1B | 2 | 0.138 | 84.6 | inactive
BAZ1B | 3 | 1.95 | 121 | inactive
ZSCAN9 | 1 | -0.803 | 65.9 | inactive
ZSCAN9 | 2 | -0.688 | 68.2 | inactive
ZSCAN9 | 3 | -1.54 | 51.3 | inactive
PLPPR4 | 1 | 2.44 | 130 | inactive
PLPPR4 | 2 | -2.05 | 41 | inactive
PLPPR4 | 3 | -0.173 | 78.4 | inactive
PLAAT5 | 1 | 0.984 | 101 | inactive
PLAAT5 | 2 | 0.686 | 95.5 | inactive
PLAAT5 | 3 | 2.97 | 141 | inactive
STOML2 | 1 | -0.755 | 66.9 | inactive
STOML2 | 2 | -0.976 | 62.5 | inactive
STOML2 | 3 | 1.39 | 110 | inactive
